Reference: patent EP2446883A1
No constants are given. Whether binding was seen depends on the method and setting. Binding seen in cells or lysates may run through a third protein. Some entries that bind do so weakly or less than the wild type.

Protein sequences, listed by entry. Tags and fused reporters are not part of them.
UniProt Q04206: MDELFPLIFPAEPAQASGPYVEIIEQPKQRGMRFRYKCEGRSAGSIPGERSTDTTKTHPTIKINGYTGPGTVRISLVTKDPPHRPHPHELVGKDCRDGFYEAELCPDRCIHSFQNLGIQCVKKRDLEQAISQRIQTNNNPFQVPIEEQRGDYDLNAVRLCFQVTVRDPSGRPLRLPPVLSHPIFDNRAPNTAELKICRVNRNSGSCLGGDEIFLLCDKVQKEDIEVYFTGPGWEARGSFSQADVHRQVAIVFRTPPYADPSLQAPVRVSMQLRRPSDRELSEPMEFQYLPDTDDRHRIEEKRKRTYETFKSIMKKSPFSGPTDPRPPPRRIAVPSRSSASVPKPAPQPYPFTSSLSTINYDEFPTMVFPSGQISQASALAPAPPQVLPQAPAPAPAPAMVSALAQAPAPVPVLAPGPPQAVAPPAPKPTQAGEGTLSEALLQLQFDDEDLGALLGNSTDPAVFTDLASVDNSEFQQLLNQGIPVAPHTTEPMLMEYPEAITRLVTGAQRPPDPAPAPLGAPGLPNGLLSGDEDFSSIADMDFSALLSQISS
UniProt Q93009: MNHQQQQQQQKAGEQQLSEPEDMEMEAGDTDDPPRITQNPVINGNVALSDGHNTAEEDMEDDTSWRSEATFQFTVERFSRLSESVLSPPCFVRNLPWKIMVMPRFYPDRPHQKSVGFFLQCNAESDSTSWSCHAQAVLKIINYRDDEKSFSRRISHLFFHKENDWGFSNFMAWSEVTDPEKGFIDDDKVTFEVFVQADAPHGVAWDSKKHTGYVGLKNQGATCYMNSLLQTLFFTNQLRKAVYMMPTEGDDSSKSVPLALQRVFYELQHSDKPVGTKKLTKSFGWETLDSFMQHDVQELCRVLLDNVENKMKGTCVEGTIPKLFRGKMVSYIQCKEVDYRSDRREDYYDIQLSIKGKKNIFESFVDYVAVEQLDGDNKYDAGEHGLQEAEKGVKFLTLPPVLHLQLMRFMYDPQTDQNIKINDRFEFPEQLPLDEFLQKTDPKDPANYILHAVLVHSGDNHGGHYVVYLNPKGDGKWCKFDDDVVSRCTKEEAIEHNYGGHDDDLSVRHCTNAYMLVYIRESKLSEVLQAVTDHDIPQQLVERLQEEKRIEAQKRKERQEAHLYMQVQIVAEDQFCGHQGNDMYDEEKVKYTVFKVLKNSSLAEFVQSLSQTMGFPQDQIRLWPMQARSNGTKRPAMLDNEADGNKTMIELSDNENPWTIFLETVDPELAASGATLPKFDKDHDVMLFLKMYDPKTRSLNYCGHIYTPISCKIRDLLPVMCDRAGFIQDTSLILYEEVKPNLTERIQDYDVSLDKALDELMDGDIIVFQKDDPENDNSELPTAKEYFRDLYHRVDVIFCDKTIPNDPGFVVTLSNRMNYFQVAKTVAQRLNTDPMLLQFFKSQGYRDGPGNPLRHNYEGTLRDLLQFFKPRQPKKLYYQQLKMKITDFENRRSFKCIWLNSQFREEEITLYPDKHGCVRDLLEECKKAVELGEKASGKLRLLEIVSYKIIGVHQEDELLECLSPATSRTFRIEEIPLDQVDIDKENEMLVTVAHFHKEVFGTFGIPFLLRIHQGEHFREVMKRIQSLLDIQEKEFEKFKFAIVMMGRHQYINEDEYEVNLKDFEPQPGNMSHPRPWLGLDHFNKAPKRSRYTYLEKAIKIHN

Legend:
[1] = molecular target: NF-κB subunit RelA/p65, expressed from a vector in HEK293 cells (UniProt Q04206); assay: co-immunoprecipitation from transfected HEK293T cells (anti-RelA/p65 IP, anti-FLAG blot)
[2] = molecular target: NF-κB subunit RelA/p65, expressed from a vector in HEK293 cells (UniProt Q04206); assay: co-immunoprecipitation from transfected HEK293 cells

binding [1]: binds
binding [2]: binds
Substance: FLAG-tagged USP7 (Ubiquitin Serine Protease 7), expressed from a vector in HEK293 cells (from UniProt Q93009 1-1102) (enzyme)
